Results from article PMC9203778.
No constants are given. Whether binding was seen depends on the method and setting. Binding seen in cells or lysates may run through a third protein. Some results given as binding are weak or reduced against the parent protein; the word gives no strength.

Sequences of proteins named here, by UniProt entry; tags and fusion partners are left off.
UniProt P26599: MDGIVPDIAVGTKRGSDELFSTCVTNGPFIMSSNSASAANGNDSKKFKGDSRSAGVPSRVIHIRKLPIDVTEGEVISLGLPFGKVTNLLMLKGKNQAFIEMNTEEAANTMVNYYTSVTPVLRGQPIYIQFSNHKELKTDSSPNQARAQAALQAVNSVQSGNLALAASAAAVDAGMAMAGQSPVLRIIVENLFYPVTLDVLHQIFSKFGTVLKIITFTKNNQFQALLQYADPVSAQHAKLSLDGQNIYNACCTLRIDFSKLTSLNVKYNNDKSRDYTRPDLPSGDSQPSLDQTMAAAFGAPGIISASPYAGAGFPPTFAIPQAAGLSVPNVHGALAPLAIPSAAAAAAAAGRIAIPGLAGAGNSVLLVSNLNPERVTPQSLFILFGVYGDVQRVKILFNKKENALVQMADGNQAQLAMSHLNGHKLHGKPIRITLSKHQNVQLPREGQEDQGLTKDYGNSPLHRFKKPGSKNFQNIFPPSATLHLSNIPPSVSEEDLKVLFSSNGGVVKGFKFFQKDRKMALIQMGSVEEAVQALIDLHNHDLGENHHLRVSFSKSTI
UniProt Q07955: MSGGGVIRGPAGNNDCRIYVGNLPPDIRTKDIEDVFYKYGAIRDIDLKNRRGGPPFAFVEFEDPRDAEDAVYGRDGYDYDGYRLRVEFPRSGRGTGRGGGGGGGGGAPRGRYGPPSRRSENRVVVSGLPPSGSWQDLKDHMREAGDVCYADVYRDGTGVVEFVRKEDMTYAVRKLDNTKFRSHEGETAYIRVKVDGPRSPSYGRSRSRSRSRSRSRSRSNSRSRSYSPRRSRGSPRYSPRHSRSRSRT

Target: Polypyrimidine tract binding protein 1 (PTBP1) (human (endogenous in MDA-MB-468 and HCC1395)) (UniProt P26599)
Test: co-IP; anti-PTBP1 immunoprecipitation (Dynabeads protein G, overnight, 4 °C) within RIP experiments on sonicated nuclear lysates of UV-crosslinked MDA-MB-468 and HCC1395 cells; 5 washes in NT2 buffer (150 mM NaCl, 0.05% NP-40); DNase and RNaseA added on beads for protein analysis; 25% of eluates analysed by western blot; IgG as control

“SRSF1 (Serine And Arginine Rich Splicing Factor 1) (from UniProt Q07955 1-248)” was tested, and the binding was “binds”.

B1: ID4 (inhibitor of DNA-binding 4) protein (protein, UniProt P47928 1-161)
chain: MKAVSPVRPSGRKAPSGCGGGELALRCLAEHGHSLGGSAAAAAAAAAARCKAAEAAADEPALCLQCDMNDCYSRLRRLVPTIPPNKKVSKVEILQHVIDYILDLQLALETHPALLRQPPPPAPPHHPAGTCPAAPPRTPLTALNTDPAGAVNKQGDSILCR
For B1, the binding was “binds”.
